This is one part of the list. Further columns of the screen follow, without active or inactive calls. Most of these compounds were active or inconclusive in the main read-out, so they are no random draw. The note in brackets gives the kind of curve behind each potency; many fits are weak.
Test: qHTS Assay to Find Inhibitors of Chronic Active B-Cell Receptor Signaling
Conditions: ABC-DLBCL IkBa-CBG/CBR reporter, luminescence ratio (green luciferase fused to IkBa over red control in TMD8 lymphoma cells), 4 h
Summary of the method: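 TMD8 human ABC-DLBCL cells with doxycycline-inducible IκBα–green luciferase fusion and unfused red luciferase, in 0.5% FBS medium; compounds up to 46 uM, 4 h at 37C. Green/red luminescence ratio, filter-overlap corrected, fitted to concentration-response curves.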

[1] = measured here: CBR red luminescence, cell number
[2] = measured here: IkBa-CBG green luminescence

In the case of CCOC(=O)c1c(NC(=O)c2cccs2)sc2c1CC(C)(C)OC2, the AC50 [1] is reported as 11.2 µM [rising, partial curve, poor fit].

In the case of COCCC(=O)N1CCC(Oc2ccc(C(=O)NCc3ncc(C)[nH]3)cc2)CC1, the AC50 [1] is reported as 3.16 µM [falling, single point].

With CCc1ccc(N2C(=O)CN(Cc3ccccc3)C2=S)cc1 the AC50 [1] was 35.5 µM [rising, single point].

With O=C1OC[C@@H]2CCCN2C(=O)[C@@H](CC(=O)N(CCO)Cc2ccccc2)C/C=C\CC[C@H]1Cc1ccc(F)cc1 the AC50 [1] was 8.2 µM [falling, partial curve, poor fit].

With Cc1ccc(-c2cc(C(=O)NC(C)c3ccccc3)c3ccccc3n2)cc1C (stereo not given) the AC50 [1] was 15.8 µM [rising, single point].

For O=C(N/N=C/C=C/c1ccccc1)c1ccccn1, the AC50 [1] was 7.94 µM [falling, partial curve, poor fit].

With CCCS(=O)(=O)c1ncc(Cl)c(C(=O)N2CCN(c3ccc(OC)cc3)CC2)n1 the AC50 [1] was 35.5 µM [falling, single point].

For Cc1c(C)n(CCN(C)C)c2ncnc(NCc3ccccc3)c12, the AC50 [1] was 20 µM [rising, single point].

With O=C1c2ccccc2S(=O)(=O)c2cc(C(=O)N(c3ccccn3)c3ccccn3)ccc21 the AC50 [1] was 20.6 µM [rising, partial curve] and the AC50 [2] was 14.6 µM [falling, partial curve, poor fit].

With COc1ccc(C(=O)/C=C/c2ccccc2C(F)(F)F)cc1 the AC50 [1] was 10 µM [falling, partial curve, poor fit].

With COCCN(C(=O)c1ccco1)C(C(=O)NC1CCCC1)c1cccs1 (stereo not given) the AC50 [1] was 9.2 µM [rising, partial curve, poor fit].

In the case of CC(=O)Nc1cccc(C(=O)N(CCc2ccccc2)Cc2ccccc2)c1, the AC50 [1] is reported as 0.447 µM [rising, full curve, poor fit].

In the case of COC(=O)c1ccc(NC(=O)c2ccc(NC(=O)c3ccco3)cc2)cc1, the AC50 [1] is reported as 10 µM [falling, partial curve, poor fit].

With CCC(C)N(C(=O)COC(=O)c1ccccc1SCC(=O)N1CCCC1)C1CCS(=O)(=O)C1 (stereo not given) the AC50 [1] was 12.6 µM [falling, partial curve, poor fit].

In the case of Cc1ccc(C(=O)OC/C(O)=C(\C#N)c2nc3ccccc3[nH]2)cc1S(=O)(=O)N1CCOCC1, the AC50 [1] is reported as 16.4 µM [falling, partial curve].

In the case of COc1ccc(C2C(C(=O)Nc3cccc(C)n3)c3ccccc3C(=O)N2C)cc1 (stereo not given), the AC50 [1] is reported as 17.8 µM [rising, partial curve, poor fit].

For Cn1cc(/C=N/NC(N)=S)c2ccccc21, the AC50 [1] was 22.4 µM [falling, partial curve, poor fit] and the AC50 [2] was 35.5 µM [falling, single point].

In the case of CCOC(=O)C1=C(C)NC(C)=C(C(=O)OCC)C1c1ccccn1, the AC50 [1] is reported as 12.6 µM [rising, partial curve, poor fit].

In the case of COc1cc(/C=C2\SC(=O)N(CC(=O)Nc3ccccc3F)C2=O)cc(Cl)c1O, the AC50 [1] is reported as 5.62 µM [falling, partial curve].

With O=C(Nc1cccc(C(=O)Nc2ccccc2F)c1)c1ccccc1 the AC50 [1] was 14.1 µM [falling, single point].

In the case of O=C(NCCN1CCCCC1)Nc1ccccc1Cl, the AC50 [1] is reported as 10 µM [rising, partial curve, poor fit].

In the case of CCCN(C(=O)c1cccs1)c1nnc(-c2ccncc2)s1, the AC50 [1] is reported as 1.26 µM [falling, partial curve, poor fit].

For Cc1cc(OCC(=O)N(C)C)c2c(-c3ccccc3)cc(=O)oc2c1, the AC50 [1] was 13 µM [rising, partial curve].

With CC(C)C(=O)N1CCN(c2ccc(NC(=O)c3ccc4c(c3)OCCO4)cc2)CC1 the AC50 [1] was 0.708 µM [falling, full curve, poor fit].

For Cc1occc(=O)c1OC(=O)Nc1ccc(Cl)c(Cl)c1, the AC50 [1] was 2.31 µM [rising, partial curve].

With COc1cc(NC(=O)c2cc(C(C)C)on2)cc(OC)c1OC the AC50 [2] was 15.8 µM [falling, partial curve, poor fit].

In the case of C[C@@H]1C[C@H]2[C@@H]3C[C@H](F)C4=CC(=O)C=C[C@]4(C)[C@@]3(Cl)[C@@H](O)C[C@]2(C)[C@H]1C(=O)COC(=O)C(C)(C)C, the AC50 [1] is reported as 2.06 µM [rising, full curve, poor fit].

For COc1ccc(NC(=O)NS(=O)(=O)c2ccc(C)cc2)c(OC)c1, the AC50 [1] was 11.2 µM [rising, partial curve, poor fit].

With Cc1onc(-c2ccccc2)c1C(=O)N1CCN(Cc2ccc3c(c2)OCO3)CC1 the AC50 [1] was 0.316 µM [rising, full curve].

With O=C1c2cccnc2Oc2ccc(Cl)cc2N1Cc1ccc(F)cc1 the AC50 [1] was 29.1 µM [falling, single point].

For Cc1cccc(NC(=O)Cn2c(=O)n3nc(CCn4nc(C)cc4C)nc3c3ccccc32)c1, the AC50 [1] was 3.98 µM [falling, single point].

In the case of O=C(Nc1cccnc1Cl)c1ccc(S(=O)(=O)N2CCCCCC2)cc1, the AC50 [1] is reported as 6.51 µM [falling, partial curve, poor fit].

With CCOc1cccc2sc(N(Cc3cccnc3)C(=O)C3CCCCC3)nc12 the AC50 [1] was 2.24 µM [falling, full curve].

In the case of Cc1c(C(=O)N2CCN(c3ccccn3)CC2)sc2ncnc(N3CCOCC3)c12, the AC50 [1] is reported as 4.11 µM [rising, single point].

With O=C(Nc1cnccn1)Nc1ccc(Cl)cc1Cl the AC50 [1] was 7.08 µM [rising, full curve, poor fit].

For O=C(N/N=C\c1cn(-c2ccccc2)nc1-c1ccccc1)c1ccc2c(c1)OCO2, the AC50 [1] was 8.91 µM [falling, partial curve].

With CCOC(=O)N1CCC(n2c(SCC(=O)NCc3ccco3)nc3ccsc3c2=O)CC1 the AC50 [1] was 29.1 µM [falling, single point].

With CC(C)Cc1nc(N2CCC(C(N)=O)CC2)c2nnn(Cc3ccccc3)c2n1 the AC50 [1] was 2.82 µM [falling, partial curve, poor fit].

Source: PubChem BioAssay AID493014 (National Center for Advancing Translational Sciences (NCATS), 2011)
